Laboratory results reported in patent US10450613B2, “EGFR/NEDD9/TGF-β interactome and methods of use thereof for the identification of agents having efficacy in the treatment of hyperproliferative disorders” (Fox Chase Cancer Center, priority 2007, dated 2019).
Some of these results come from one statement about several compounds together.

Tested on: A431, HCT116, DLD-1, DKS-8, LoVo, SCC61, PANC-1 and MIA PaCa-2 cell lines
Assay: Cell line specificity of hit activity: siRNA sensitization to erlotinib, cetuximab and CPT11, and intrinsic viability
Assay type: cell-based, human
Details: threshold analysis (FIG. 13A, left)
Method: Cell line specificity of hit activity. Of the confirmed set of 61 siRNA targets identified for erlotinib in A431 cells, 45 were further tested for sensitization to erlotinib, cetuximab and camptothecin in A431 versus refractory adenocarcinoma cell lines for which optimal transfection conditions and drug sensitivity had been established. […] SI and statistical significance were calculated as in the validation experiments. All experiments were performed at least three times independently.
In subsequent data analysis, two approaches were used. […] For all experiments performed with a given cell:drug combination (e.g., A431:erlotinib, or HCT116:CPT11) averages were determined based on at least three experimental runs. […]
In additional experiments, we comparatively profiled the efficacy of the hit panel as sensitizers of erlotinib, cetuximab, and CPT11 across a set of cell lines, including A431, the colorectal adenocarcinoma cell lines HCT116, DLD-1, DKS-8, and LoVo, the head and neck squamous cell carcinoma cell line SCC61, and the pancreatic adenocarcinoma cell lines PANC-1 and MIA PaCa-2 (FIG. 13A). […] To compensate for this difference, we analyzed the data in two ways: first, by conventional threshold analysis (FIG. 13A, left), and second, by assessing the rank order of sensitization phenotype, using relaxed statistical criteria (FIG. 13A, right; see Materials and Methods). […]

PRKACB: siRNA duplexes of the custom library targeting PRKACB (sense CAGCCTGTGTAGTGTGACAAA; target sequence only, antisense strand not given here)
Number of cell lines sensitized to erlotinib and/or CPT11: 3-5 cell lines
